# The whole screen tested about 340,000 compounds, of which about 170 (0.05%) were called active. Inconclusive results, whose numbers are uncertain, are shown with a selection of clear calls. Calls follow the shape of the dose curve; as a rule, active = well fitted inhibition curve with a large enough effect in the signal ratio, with a control signal flat (not every such curve was filed as active); inconclusive = small, poorly fitted or top-dose-only effect, or effect the other way, or a change in a side signal; inactive = flat fitted curve, though single readings scatter; the % refers to the signal ratio. A potency beside an inconclusive call is a rough fit, not a confirmed value.
# Test: qHTS Assay to Find Inhibitors of Chronic Active B-Cell Receptor Signaling;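 as to activity change, negative = inhibition: plate controls were basal doxycycline-induced cells for no effect and cells given 10 µM MG132 for full effect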
# Settings: ABC-DLBCL IkBa-CBG/CBR reporter, luminescence ratio (green luciferase fused to IkBa over red control in TMD8 lymphoma cells), 4 h; activity change, negative = inhibition: at 46.1 µM (top of the series)
# Method in brief: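 Doxycycline induced both beetle luciferases in TMD8 lymphoma cells; IKK-driven degradation limits the IkappaBalpha-fused green signal, while red luminescence normalises for cell number and nonspecific effects. Compounds tested up to 46 uM, 4 hrs.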
# Potency is read from the fitted curve at half-maximal effect.
SMILES,Potency,"activity change, negative = inhibition"
COc1cccc(NC(=O)CN(C)C(=O)/C=C/c2ccc3ccccc3n2)c1,"inconclusive: 25.9 µM [falling, single point]",
CC(=O)c1ccc(NS(=O)(=O)c2ccc(N)cc2)cc1,"inconclusive: 10 µM [falling, partial curve]",
CCc1cc(C(=O)Nc2nc(-c3ccccn3)cs2)sc1C,,inconclusive: -5.26%
O=C(Oc1ccc2c(-c3ccccc3)cc(=O)oc2c1)c1cccs1,,inconclusive: 6%
CC1(C)CC(=O)C=C(c2cccc3c2Oc2ccccc2S3)C1,,inconclusive: 0.619%
CCN(CC)S(=O)(=O)c1ccc(Cl)c(C(=O)NC2CCN(Cc3ccccc3)CC2)c1,,inactive: 0.296%
CC1CCN(c2cc(N)c(Cl)cc2[N+](=O)[O-])CC1,,inconclusive: -1.88%
COCCNC(=O)c1cnn2c(C(F)(F)F)cc(-c3ccc4c(c3)OCO4)nc12,,inconclusive: -0.893%
O=[N+]([O-])c1cccc(C(=NCc2ccccc2)NO)c1,,inconclusive: 1.59%
COc1ccc2ncc(S(=O)(=O)c3ccccc3)c(N3CCC4(CC3)OCCO4)c2c1,"inconclusive: 18.4 µM [falling, single point]",
Cc1ccc(C(=O)Nc2ccc(S(=O)(=O)N3CCCC3)cc2)s1,,inconclusive: -0.884%
COc1cc(NC(=O)c2ccc([N+](=O)[O-])o2)ccc1NC(=O)c1ccco1,,inactive: 3.8%
CC(=O)c1cc(C#N)c(NCc2cc(-c3ccccc3)no2)nc1C,,inconclusive: 4.52%
CCN(CC(=O)Nc1c(C(=O)OC)[nH]c2ccc(Cl)cc12)c1ccc2c(c1)OCO2,,inactive: 1.27%
CCN1C(=O)[C@H]2[C@@H](c3ccc(C)cc3)N3C(=O)N(c4ccc(C(F)(F)F)cc4)C(=O)[C@@]3(Cc3ccccc3)[C@H]2C1=O,,inconclusive: 14.5%
COc1cc2cnc(-c3ccccc3F)cc2cc1OC,"inconclusive: 23.1 µM [falling, partial curve, poor fit]",
COC(=O)C1=C(C)N(Cc2ccccc2)C(=NCc2ccc(OC)cc2)N[C@H]1c1cccc(F)c1,,inactive: -13.3%
COc1ccc(C(=O)C2CCCN(C(=O)c3noc4c3CCCC4)C2)c(C)c1 (stereo unspecified),,inactive: 0.857%
CC1=C/C(=N\N=C2\NC(=O)C(CC(=O)Nc3ccccc3F)S2)CC(C)(C)C1 (stereo unspecified),"inconclusive: 10 µM [cytotoxic, partial curve]",
Cc1cccc(-n2nnnc2SCc2csc(-c3ccccc3)n2)c1,,inconclusive: 16.6%
CCN(C(=O)COc1cc(=O)n(CC)c2ccccc12)c1cccc(Cl)c1,"inconclusive: 29.1 µM [falling, single point]",
COc1ccc(C(=O)Nc2ncc3c(n2)CC(C)CC3=O)cc1 (stereo unspecified),"inconclusive: 11.2 µM [falling, partial curve, poor fit]",
CCOC(=O)c1c(NC(=O)CSc2ccccc2C(=O)O)sc(C)c1C,,inconclusive: 5.49%
CC[C@H](C)[C@@H](NC(=O)O[C@@H]1C(=O)c2cc(Br)ccc2O[C@H]1c1cccc(OC)c1)C(=O)OC,,inconclusive: 1.45%
CS(=O)(=O)Nc1nc2ccccc2[nH]1,,inactive: -1.69%
CS(=O)(=O)N1CCN(c2nc(-c3ccc(F)cc3)cs2)CC1,,inconclusive: -0.995%

SMILES,Potency,"activity change, negative = inhibition"
Cc1ccc2nc(NCc3ccccc3)c(C=NCc3ccccc3)c(=O)n2c1,,inconclusive: 4.35%
Oc1ccc(/C=C/c2ccnc3ccccc23)cc1,"inconclusive: 20.6 µM [falling, partial curve]",
S=c1[nH]nc(-c2ccccn2)n1/N=C/c1ccco1,,inconclusive: 0.174%
O=C(Cn1cnc2ccccc21)OCC(=O)N1CCCCC1,,inactive: -0.105%
COc1ccc(S(=O)(=O)N(Cc2cc3ccc(OC)cc3[nH]c2=O)CC2COCCO2)cc1 (stereo unspecified),,inconclusive: 11.7%
COc1ccc(NC(=O)C2CCCCN2N)cc1OC (stereo unspecified),,inactive: -18.5%
O=C(c1cc(COc2ccc(F)cc2Cl)on1)N1CCc2sccc2C1,,inconclusive: 11.4%
CCCc1ccc(-c2csc(NC(=O)Cc3cccs3)n2)cc1,,inconclusive: -0.326%
C=CC[n+]1c(C)csc1Nc1cccc(Br)c1,,inconclusive: 7.01%
CCC(C)(C(=O)NC1CCCCC1)N(C(=O)c1ccccn1)c1ccccc1 (stereo unspecified),"inconclusive: 32.6 µM [falling, partial curve, poor fit]",
CC[C@H]1C/C=C\Cc2ccccc2[C@@H](C(=O)C[C@@H](O)CC(C)=O)OC1=O,,inactive: 6.53%
CC(C)(C)c1ccc(C(=O)O/N=C(\N)c2ccccc2)cc1,,inconclusive: 8.65%
COc1ccc(/C=C2\SC(=S)N(CCC(=O)NCCCN3CCOCC3)C2=O)cc1,"inconclusive: 12.6 µM [falling, partial curve]",
COc1ccccc1C(=O)COC(=O)c1ccc(N(C)C)cc1,"inconclusive: 35.5 µM [rising, single point]",
O=C(NCCc1ccccc1)C1CCCN1C(=O)Nc1ccccc1 (stereo unspecified),,inactive: 0.0118%
Cc1cccc(Nc2c(F)c(F)c(F)c(F)c2C(=O)O)c1,,inconclusive: 16.5%
COc1ccc(NS(=O)(=O)c2cc(C)ccc2OC)cc1OC,,inconclusive: 5.72%
Cc1ccc(NC(=O)c2ccco2)cc1NC(=O)CSc1nnc(-c2cccs2)n1C,"inconclusive: 14.6 µM [falling, single point]",
CCN(CC)S(=O)(=O)c1cc(NC(=O)NCCCl)ccc1C,,inconclusive: 8.63%
CC(C)(C)NC(=O)COC(=O)c1c2c(nc3ccccc13)CCC2,,inactive: 5.54%
COC(C(=O)NNC(=O)Cc1ccc(Cl)cc1)c1ccccc1 (stereo unspecified),,inconclusive: 1.59%
CCCn1c(SCC(=O)Nc2ccccc2Oc2ccccc2)n[nH]c1=O,"inconclusive: 7.31 µM [falling, partial curve, poor fit]",
COc1ccccc1CNC(=O)c1cc(C)nn1-c1ccccc1,"inconclusive: 22.4 µM [falling, single point]",
CCCC(=O)Nc1ccc(C(=O)NNC(=S)NC(=O)c2cccs2)cc1,,inactive: 14.1%
O=C(C1CCN(C2CCN(Cc3ccc4cc(F)ccc4n3)CC2)CC1)N1CCCC1,,inconclusive: 4.01%

# Quoted at random: 4 records from the list
SMILES,Potency,"activity change, negative = inhibition"
Cc1ccc2nc(NCc3ccccc3)c(C=NCc3ccccc3)c(=O)n2c1,,inconclusive: 4.35%
O=C(c1cc(COc2ccc(F)cc2Cl)on1)N1CCc2sccc2C1,,inconclusive: 11.4%
O=C(Cn1cnc2ccccc21)OCC(=O)N1CCCCC1,,inactive: -0.105%
CC[C@H]1C/C=C\Cc2ccccc2[C@@H](C(=O)C[C@@H](O)CC(C)=O)OC1=O,,inactive: 6.53%
